Measurements taken from paper PMC10795974.
Results are given in words; binding and its absence hold for the method and conditions named. Binding seen in cells or lysates may run through a third protein. Some binding calls cover weakened binding; strength is not graded here.

The chains behind the UniProt entries cited, without tags or fusion partners.
UniProt P54252: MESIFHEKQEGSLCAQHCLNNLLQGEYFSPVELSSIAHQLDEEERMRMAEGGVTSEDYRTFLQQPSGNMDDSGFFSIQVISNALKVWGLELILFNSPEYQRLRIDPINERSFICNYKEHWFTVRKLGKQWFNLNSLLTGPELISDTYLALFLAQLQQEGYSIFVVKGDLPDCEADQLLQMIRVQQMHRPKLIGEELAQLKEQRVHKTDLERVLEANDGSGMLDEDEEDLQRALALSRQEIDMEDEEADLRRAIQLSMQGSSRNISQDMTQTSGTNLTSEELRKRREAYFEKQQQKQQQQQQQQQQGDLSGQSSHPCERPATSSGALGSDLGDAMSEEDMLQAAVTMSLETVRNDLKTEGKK

Molecular target: ATXN3 (human (endogenous in SH-SY5Y)) (UniProt P54252)
Experiment: proximity ligation; Duolink kit (Olink Bioscience) in SH-SY5Y cells; nuclei counterstained with DAPI; ATXN3-depleted (siRNA) cells and non-specific Ab (IgG) as controls

Polynucleotide Kinase 3'-Phosphatase (from UniProt Q96T60 1-521)
binding: binds
